# Reference: PubChem BioAssay AID540276 (National Center for Advancing Translational Sciences (NCATS), 2011)
# “And” between values parts separate entries of the source, which are not always exact repeats. Equal entries are not always repeated. Out of some 300,000 compounds screened, about 5,400 (1.8%) were called active. This list was built around the results that the source calls inconclusive (neither active nor inactive); the mix of calls is not that of the screen. Calls follow the shape of the full dose curve; tested in HEK293 cells. A potency beside an inconclusive call is a rough fit, not a confirmed value.
# Assay: qHTS for inhibitors of binding or entry into cells for Marburg Virus
# Conditions: Marburg virus pseudotyped entry inhibition, cell reporter; activity change, negative = inhibition: at 37.8 µM (top of the series) unless noted
# % is scaled to controls: 0 for no effect and ±100 for the full control effect; potency is read from the fitted curve at half-maximal effect.
SMILES,Potency,"activity change, negative = inhibition"
CCOc1ccc(NC(=O)c2csc3c2CCCC3)cc1,inactive,–
CC(C)c1ccc(NC(=S)NCc2cccs2)cc1,inactive,–
Cc1ccc(C2(c3ccc(C)cc3)NC(=O)N(Cc3c(C)noc3C)C2=O)cc1,"inconclusive: 8.91 µM [inhibitor, partial curve, poor fit]",–
COc1cccc(/C=N/NC(=S)NCCc2ccccc2)c1,inactive,–
O=C(CN1C(=O)NC2(CCCCCC2)C1=O)Nc1ccc2c(c1)CCC2,"inconclusive: 6.31 µM [inhibitor, single point]",–
O=C(Nc1cccnc1)c1ccccc1Cl,–,inconclusive: 4.35% [activator]
CC(C)c1ccc(NCCC(=O)c2ccc(Br)cc2)cc1,"inconclusive: 0.112 µM [activator, full curve, poor fit]",–
Cc1cc(C)c(Cn2c(C)c(CNCc3ccccc3C)c(C(=O)O)c2C)c(C)c1,inactive,–
CCN(CC)S(=O)(=O)c1ccc(NCC2COc3ccccc3O2)c([N+](=O)[O-])c1 (stereo unspecified),"inconclusive: 20 µM [inhibitor, single point]",–
COc1ccc(S(=O)(=O)N2CCN=C2SCc2cccc(C)c2)cc1,"inconclusive: 15.8 µM [inhibitor, partial curve, poor fit]",–
Cc1ccc(Nc2nc(N)c([N+](=O)[O-])c(N3CCOCC3)n2)cc1,inactive,–
O=C(OCc1csc(Nc2ccccc2)n1)c1ccc(Cl)cc1,inactive,–
CCOC(=O)C1=C(C)Nc2ccccc2N=C1NC(=O)c1oc2ccccc2c1COC,"inconclusive: 11.2 µM [inhibitor, partial curve]",–
COc1ccc(/C=C/c2nnc(NC(=O)C(C)(C)C)s2)cc1,inactive,–
COc1ccccc1/C=C/[C@@H]1C[C@H]2CN(Cc3cccc(Cl)c3)C(=O)[C@]23CCCN13,"inconclusive: 35.5 µM [inhibitor, single point]",–
COc1ccc(/C=N\N=C(N)N)cc1,"inconclusive: 35.5 µM [inhibitor, single point]",–
COCCCNC(=O)c1ccc(N2CCCC2)c(NS(=O)(=O)c2ccc(C)cc2)c1,inactive,–
O=C(Cc1ccccc1Cl)NNC(=O)Nc1ccccc1,"inconclusive: 7.94 µM [activator, partial curve]",–
Clc1ncc2[nH]cnc2n1,inactive,–
COC(=O)c1sc(N)c(C(=O)OC)c1CSc1nnc(-c2ccccc2Cl)n1C,inactive,–
C[C@]12CC[C@@H]3c4ccc(O)cc4CC[C@H]3[C@@H]1CC[C@@H]2O,"inactive and inconclusive: 794 nM [inhibitor, full curve, poor fit]",–

# Three compounds already listed, arranged by count of non-hydrogen atoms, rising.
SMILES,Potency,"activity change, negative = inhibition"
CCOc1ccc(NC(=O)c2csc3c2CCCC3)cc1,inactive,–
CCN(CC)S(=O)(=O)c1ccc(NCC2COc3ccccc3O2)c([N+](=O)[O-])c1 (stereo unspecified),"inconclusive: 20 µM [inhibitor, single point]",–
Cc1cc(C)c(Cn2c(C)c(CNCc3ccccc3C)c(C(=O)O)c2C)c(C)c1,inactive,–
